According to US10130624B2, “Pharmaceutical compositions of amlodipine and benazepril” (LUPIN LIMITED, priority 2005, dated 2018):
At least one structure is not confirmed: it was looked up by name or label, or the drawing left a doubt.

Assay: Preformulation compatibility study: amlodipine and benazepril blends, with or without excipients, at accelerated stability conditions; colour change and degradation products by HPLC
Format: physicochemical
Settings: without any excipients

CCOC(=O)C1=C(COCCN)NC(C)=C(C(=O)OC)C1c1ccccc1Cl (centres unmarked) [Amlodipine alone, Amlodipine]
Related substances: Amlodipine impurity D (Initial): 0.000% | Related substances: Benazepril impurity C (Initial): 0.000% | Related substances: Benazepril impurity G (Initial): 0.000% | Related substances: Total impurities (Initial): 0.130% | Related substances: Amlodipine impurity D (charged on stability, 3M): 0.000% | Related substances: Benazepril impurity C (charged on stability, 3M): 0.000% | Related substances: Benazepril impurity G (charged on stability, 3M): 0.000% | Related substances: Total impurities (charged on stability, 3M): 0.143%
